Experimental data: PubChem BioAssay AID1259254 (NCATS, 2017)
Purpose: 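Finding genes that stop cells copying their DNA twice in one cycle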 (primary screen). Cells: human HCT116 colorectal cancer cells. Reagents: single siRNA against human genes. Timing: 3 days. Measured: 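Nuclei stained with Hoechst and imaged; cell-cycle phase assigned by DNA content; G2 share scaled per plate, non-targeting siRNA 0%, GMNN siRNA 100%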. Scale: G2 robust z-score and G2 cells, % of GMNN control: higher = more G2 cells, more excess DNA replication. Active means: 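An siRNA counts as active if its G2 robust z-score lies at least 5 MADs above the screen median; here such calls match roughly 38% of GMNN control or more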.
In all, the deposit lists about 59,000 reagents; below is an unselected part. About 1,550 of them (2.6%) were called active. 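G2 share is only a proxy for re-replication; each gene was hit by three separate siRNAs, and active genes were retested.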 A number with no mark means an inactive call. The numbers tell different reagents against one gene apart. Further read-outs or replicates are left out here. Not stated in the record: the amount of reagent.

| Target gene | reagent | G2 robust z-score | G2 cells, % of GMNN control |
| --- | --- | --- | --- |
| RNF39 (ring finger protein 39) | 1 | 0.674 | 7.71 |
| RNF39 (ring finger protein 39) | 2 | -0.965 | -3.82 |
| RNF39 (ring finger protein 39) | 3 | 2.31 | 19.2 |
| MTX2 (metaxin 2) | 1 | -0.0317 | 2.74 |
| MTX2 (metaxin 2) | 2 | 0.905 | 9.34 |
| MTX2 (metaxin 2) | 3 | 1.15 | 11 |
| SOFU1 (sperm-oocyte fusion factor 1) | 1 | -0.093 | 2.31 |
| SOFU1 (sperm-oocyte fusion factor 1) | 2 | -0.832 | -2.88 |
| SOFU1 (sperm-oocyte fusion factor 1) | 3 | -0.0238 | 2.8 |
| HACD3 (3-hydroxyacyl-CoA dehydratase 3) | 1 | -1.44 | -7.13 |
| HACD3 (3-hydroxyacyl-CoA dehydratase 3) | 2 | -0.521 | -0.699 |
| HACD3 (3-hydroxyacyl-CoA dehydratase 3) | 3 | 1.29 | 12 |
| TEX29 (testis expressed 29) | 1 | -0.454 | -0.229 |
| TEX29 (testis expressed 29) | 2 | -0.506 | -0.596 |
| TEX29 (testis expressed 29) | 3 | 0.125 | 3.85 |
| ZFP36L2 (ZFP36 like 2 zinc finger CCCH-type) | 1 | 1.03 | 10.2 |
| ZFP36L2 (ZFP36 like 2 zinc finger CCCH-type) | 2 | 0.714 | 7.99 |
| ZFP36L2 (ZFP36 like 2 zinc finger CCCH-type) | 3 | 3.95 | 30.7 |
| S100A3 (S100 calcium binding protein A3) | 1 | -0.0857 | 2.36 |
| S100A3 (S100 calcium binding protein A3) | 2 | -0.29 | 0.93 |
| S100A3 (S100 calcium binding protein A3) | 3 | 0.579 | 7.04 |
| DEFB105A (defensin beta 105A) | 1 | 0.103 | 3.69 |
| DEFB105A (defensin beta 105A) | 2 | 1.19 | 11.3 |
| DEFB105A (defensin beta 105A) | 3 | 0.00449 | 3 |
| OR13A1 (olfactory receptor family 13 subfamily A member 1) | 1 | 0.296 | 5.05 |
| OR13A1 (olfactory receptor family 13 subfamily A member 1) | 2 | 4.82 | 36.9 |
| OR13A1 (olfactory receptor family 13 subfamily A member 1) | 3 | -0.918 | -3.49 |
| PTPRB (protein tyrosine phosphatase receptor type B) | 1 | -0.445 | -0.165 |
| PTPRB (protein tyrosine phosphatase receptor type B) | 2 | -0.086 | 2.36 |
| PTPRB (protein tyrosine phosphatase receptor type B) | 3 | 0.668 | 7.66 |
| SLC6A2 | 1 | 5.63 (active) | 42.6 |
| SLC6A2 | 2 | 2.28 | 19 |
| SLC6A2 | 3 | -0.801 | -2.67 |
| PDCL2 (phosducin like 2) | 1 | -0.656 | -1.65 |
| PDCL2 (phosducin like 2) | 2 | -0.399 | 0.157 |
| PDCL2 (phosducin like 2) | 3 | -0.117 | 2.15 |
| USP4 (ubiquitin specific peptidase 4) | 1 | 0.0569 | 3.37 |
| USP4 (ubiquitin specific peptidase 4) | 2 | 0.0125 | 3.06 |
| USP4 (ubiquitin specific peptidase 4) | 3 | -0.609 | -1.31 |
| RPL21P131 (ribosomal protein L21 pseudogene 131) | 1 | 0.924 | 9.47 |
| RPL21P131 (ribosomal protein L21 pseudogene 131) | 2 | 0.252 | 4.74 |
| RPL21P131 (ribosomal protein L21 pseudogene 131) | 3 | 3.59 | 28.2 |
| BLNK (B cell linker) | 1 | 1.45 | 13.1 |
| BLNK (B cell linker) | 2 | -0.621 | -1.4 |
| BLNK (B cell linker) | 3 | 0.87 | 9.09 |
| FOXH1 (forkhead box H1) | 1 | -0.989 | -3.99 |
| FOXH1 (forkhead box H1) | 2 | -0.256 | 1.17 |
| FOXH1 (forkhead box H1) | 3 | 2.96 | 23.8 |
| FSTL5 (follistatin like 5) | 1 | -0.433 | -0.0817 |
| FSTL5 (follistatin like 5) | 2 | -0.331 | 0.639 |
| FSTL5 (follistatin like 5) | 3 | -0.326 | 0.676 |
| PLEKHJ1 (pleckstrin homology domain containing J1) | 1 | -1.02 | -4.18 |
| PLEKHJ1 (pleckstrin homology domain containing J1) | 2 | 6.31 (active) | 47.4 |
| PLEKHJ1 (pleckstrin homology domain containing J1) | 3 | -0.276 | 1.03 |
| SHOC2 (SHOC2 leucine rich repeat scaffold protein) | 1 | 1.28 | 12 |
| SHOC2 (SHOC2 leucine rich repeat scaffold protein) | 2 | -1.35 | -6.53 |
| SHOC2 (SHOC2 leucine rich repeat scaffold protein) | 3 | 2.25 | 18.8 |
| CSTF2 (cleavage stimulation factor subunit 2) | 1 | 1.58 | 14.1 |
| CSTF2 (cleavage stimulation factor subunit 2) | 2 | -0.068 | 2.49 |
| CSTF2 (cleavage stimulation factor subunit 2) | 3 | -1.54 | -7.89 |
| FADS2 (fatty acid desaturase 2) | 1 | -0.202 | 1.55 |
| FADS2 (fatty acid desaturase 2) | 2 | -0.544 | -0.859 |
| FADS2 (fatty acid desaturase 2) | 3 | -0.835 | -2.9 |
| L1TD1 (LINE1 type transposase domain containing 1) | 1 | -1.22 | -5.64 |
| L1TD1 (LINE1 type transposase domain containing 1) | 2 | 3.42 | 27.1 |
| L1TD1 (LINE1 type transposase domain containing 1) | 3 | 0.0305 | 3.18 |
| GPRIN2 (G protein regulated inducer of neurite outgrowth 2) | 1 | -1.1 | -4.75 |
| GPRIN2 (G protein regulated inducer of neurite outgrowth 2) | 2 | -0.27 | 1.07 |
| GPRIN2 (G protein regulated inducer of neurite outgrowth 2) | 3 | 2.1 | 17.7 |
